System: GABA-A receptors (GABAAR)
Conditions: 2 μM GABA, peak amplitude

| SMILES | EC50 |
| --- | --- |
| C[C@]12CC[C@@H](O)C[C@@H]1CC[C@@H]1[C@@H]2[C@@H](O)C[C@]2(C)[C@@H](C(=O)CO)CC[C@@H]12 [3α5α-CORT, 3α,11β,21-Trihydroxy-5α-pregnan-20-one] | 23 ± 8 µM |
| C[C@]12CC[C@@H](O)C[C@H]1CC[C@@H]1[C@@H]2[C@@H](O)C[C@]2(C)[C@@H](C(=O)CO)CC[C@@H]12 [3α5β-CORT, 3α,11β,21-Trihydroxy-5β-pregnan-20-one] | 18 ± 7 µM |

— paper PMC10485894, “Corticosteroids as Selective and Effective Modulators of Glycine Receptors” (ACS Chemical Neuroscience, 2023)
